# Measured values taken from patent publication US20090186810A1, “POTASSIUM CHANNEL MODULATORS AND PLATELET PROCOAGULANT ACTIVITY” (priority 2006, published 2009).
# For at least one compound, name, drawing or mass did not settle the structure.
# Test system: collagen and thrombin activated platelets
# Format: cell-based, human
# Settings: iberiotoxin 200 nmol/L; apamin 500 nmol/L
# Description: Platelet isolation was performed as described.^10 Briefly, 10 milliliters (mL) blood was collected in 2 mL anticoagulant ACD (80 mmol/L trisodium citrate, 52 mmol/L citric acid and 180 mmol/L glucose). Platelet rich plasma was obtained by centrifuging whole blood for 15 minutes at 200 g. Platelets were spun down at 11,500× gravity for 2 minutes using a microfuge. The platelet pellet was resuspended and washed twice with 10 mmol/L HEPES, 137 mmol/L NaCl, 2.7 mmol/L KCl, 2 mmol/L MgCl2, 5 mmol/L glucose and 0.5 mg/mL BSA, adjusted at pH 6.6); before each centrifugation step, 100 μL ACD was added to each mL resuspended platelets. Finally, platelets were resuspended in HEPES buffer at pH 7.4. Platelet count was adjusted at 2×10^8 platelets/mL. For measurement of the intracellular Ca^2+ concentration ([Ca^2+]i), platelets were loaded with Fura-2 (3 μmol/L) during 45 minutes at 37° C., prior to isolation. […]
# Platelet procoagulant activity was assayed as described in more detail elsewhere.^9 Briefly, after activation of 10^7 platelets/mL with collagen (10 μg/mL) and thrombin (4 nmol/L) for 10 minutes, samples were taken and diluted to 10^6 platelets/mL in HEPES buffer containing 3 mmol/L CaCl2 and 0.5 mg/mL BSA. […] Thrombin was measured using the chromogenic substrate S2238. […]
smiles,measurement,value
CC(C)C[C@@H]1NC(=O)[C@H](C)NC(=O)[C@H]([C@@H](C)O)NC(=O)[C@H](CCC(=O)O)NC(=O)[C@@H]2CCCN2C(=O)[C@H](C)NC(=O)[C@H](CCCCN)NC(=O)[C@@H]2CSSC[C@@H](C(=O)N[C@@H](CCC(N)=O)C(=O)N[C@@H](CCC(N)=O)C(=O)N[C@@H](Cc3cnc[nH]3)C(N)=O)NC(=O)[C@H](CCCNC(=N)N)NC(=O)[C@H](CCCNC(=N)N)NC(=O)[C@H](C)NC(=O)[C@H](CSSC[C@H](N)C(=O)N[C@@H](CC(N)=O)C(=O)N2)NC1=O [apamin],"effect on collagen plus thrombin-induced procoagulant (prothrombinase) activity, in words",without effect
